# According to the supplement of paper PMC3334620:
# In all, about 33,000 sequences were measured (“E-score (-0.5 to 0.5)”: median about -0.0034, highest 2% from about 0.25 on). This is one part of the list.
# Target: T1, Yap3 (UniProt P38749)
# T1 sequence: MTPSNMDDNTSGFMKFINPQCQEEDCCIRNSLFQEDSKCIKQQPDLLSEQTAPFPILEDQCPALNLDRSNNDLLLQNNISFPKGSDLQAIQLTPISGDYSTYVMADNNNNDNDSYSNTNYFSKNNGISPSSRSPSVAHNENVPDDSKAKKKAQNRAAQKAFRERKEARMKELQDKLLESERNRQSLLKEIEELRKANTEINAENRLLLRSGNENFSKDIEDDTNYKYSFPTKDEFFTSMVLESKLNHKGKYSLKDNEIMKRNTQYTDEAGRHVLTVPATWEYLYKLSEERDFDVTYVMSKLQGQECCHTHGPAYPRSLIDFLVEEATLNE
# Test: PBM E-score (8-mer binding enrichment) (E-score (-0.5 to 0.5)); higher = stronger / more preferred TF binding
# Conditions: protein concentration: 100 nM; construct: GST-full length
# Procedure, shortened: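 Yeast transcription factors carrying a GST tag, as full-length proteins or DNA-binding domains, were produced by PURExpress in vitro transcription/translation. About 100-200 nM protein was applied to universal all-10-mer Agilent arrays, double-stranded by primer extension on fresh or once-stripped slides. Bound protein was detected with fluorescent anti-GST, and scans were normalised with masliner. The Universal PBM Analysis Suite gave each ungapped eight-base word, pooled with its reverse complement, an E-score, a modified Wilcoxon-Mann-Whitney statistic.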
row,Sequence,PBM E-score
1,CCGAAACA,0.143
2,AGCTGGAA,-0.178
3,CTTGACTA,-0.029
4,AATCTGTG,-0.0142
5,AACTAGCG,0.141
6,CCAAGCAG,-0.091
7,AACCAGTC,0.0151
8,AGGCGTGG,-0.39
9,CTCATGAC,0.106
10,AGACGGCG,0.0525
11,ATACGGGG,-0.255
12,CTTTCGAC,-0.148
13,GCAACGGC,0.102
14,GGCACGTA,0.00791
15,AGTCGGAG,-0.168
16,CCTTGCGA,0.0356
17,AGGGGGTA,-0.4
18,AGCTGGCA,-0.0205
19,AAACTGGC,0.00917
20,ATCAGAAC,-0.0837
21,ACGCATAA,0.189
22,ACACATTA,0.0593
23,GCCACTAC,-0.123
24,AGCCCTGG,-0.383
25,GGCCCTCA,-0.287

# Some values from above:
# PBM E-score with AACCAGTC reads 0.0151
# PBM E-score with AGTCGGAG reads -0.168
# PBM E-score with AGACGGCG reads 0.0525
# PBM E-score with CTTTCGAC reads -0.148
# PBM E-score with CCTTGCGA reads 0.0356
# PBM E-score with CTCATGAC reads 0.106

# More entries follow.

row,Sequence,PBM E-score
1,ACAAAGCT,0.134
2,GTCATACA,0.0761
3,AAAGTACG,0.148
4,CGCAATTA,0.128
5,GTTTGATA,0.188
6,AATAGTAG,0.206
7,TGACCCAA,0.133
8,CTCTAGTC,-0.278
9,ATATTGCA,0.162
10,TAGCCAAA,0.061
11,ATTATACC,0.179
12,AACACACT,0.158
13,CCTAGCGC,-0.0445
14,CAACCGTC,-0.213
15,ACTTTCAC,0.136
16,GCCTTCAA,0.00934
17,ATATCGCC,0.0936
18,AGTGCATG,0.0892
19,CACCAATA,-0.00578
20,CGCACGTC,-0.0237
21,GAGCCGTA,0.0717
22,GCAATTCA,0.0218
23,CATGTAAC,0.0356
24,TAGAGTGA,-0.0618
25,AGCTGGCG,-0.254

row,Sequence,PBM E-score
1,CCCCACTC,-0.116
2,ACCTGCTC,-0.137
3,ACCAGATA,0.0786
4,AGACTAAT,-0.0727
5,AACGCTTA,0.0813
6,CGTTGTAG,0.0544
7,TATGCGAA,0.0891
8,AAGAGGTA,0.043
9,GACATCTC,-0.0535
10,ACCGTCAC,-0.173
11,CTTAGGCA,-0.211
12,CAAAGGAA,0.201
13,CATTTGGG,0.0228
14,AAGTCTAT,0.00548
15,CTGGGGTC,-0.128
16,AGGTATCG,0.136
17,CGCTATTA,0.0889
18,GACCCCGC,-0.105
19,ACTATTTG,0.155
20,AGTGGACG,0.0142
21,AACCTGTA,0.06
22,CTTGGCTA,-0.00074
23,ATGCCGAA,0.0391
24,ATTCGAAT,0.0256
25,GAAGACGA,0.119

row,Sequence,PBM E-score
1,ACGTTGCA,-0.0509
2,CCCAGGAA,-0.0841
3,CCACCCTC,0.0377
4,GGTGAACA,-0.183
5,AACTGAGG,0.0789
6,AATGACTG,0.101
7,AGCAATTA,0.085
8,CCTGGACG,-0.162
9,AACTAGGT,0.154
10,ACGTTCCA,0.1
11,ACGCAATC,0.0568
12,CGACAGAC,-0.0804
13,CGGAGGCA,-0.148
14,GTAACTAC,0.0999
15,AAATCTCT,-0.0251
16,AACCACAA,0.148
17,GCGCCTTA,0.0395
18,ATTCCGAC,0.127
19,CGAAGCCA,-0.0192
20,AGGTACAA,-0.0364
21,AGAGGACC,-0.121
22,CTTTTGGA,-0.0508
23,TCAATAAA,0.148
24,CCGATACC,-0.054
25,TCCAGAGA,-0.169

row,Sequence,PBM E-score
1,TCTGCCCA,-0.148
2,AGTGCGAT,-0.0748
3,GGTTCAGA,-0.0354
4,GGTTTTGA,0.0555
5,ACCATCTC,0.104
6,CCCTCACA,-0.106
7,CCTCCTGC,-0.172
8,CGCATTAA,0.167
9,AACCTTGG,-0.0497
10,CGACAAAA,0.243
11,ACCACCGA,-0.109
12,CAACCCAG,-0.174
13,CTGGACAA,-0.106
14,ATCTCCTG,0.0684
15,CAGCGAAG,-0.16
16,GACCTCAA,0.0909
17,CCCACCGC,-0.00756
18,TCTCTAAA,0.0348
19,GCTCGAAA,0.0771
20,ATTGTTCG,0.171
21,GCACGCCA,-0.263
22,CAACCGAG,0.0888
23,GCGGCGCC,0.0677
24,AGTATCGC,0.0525
25,CTTCACGA,-0.293

row,Sequence,PBM E-score
1,AAAGAACT,0.145
2,GCATGGTA,0.0244
3,CCATATGA,0.00159
4,ATAGAGGC,-0.0393
5,ATTCAGGA,0.0435
6,CGAACAAA,0.303
7,TATTCGCA,0.0736
8,CTTTTCGA,0.0999
9,GTATCGAA,0.129
10,GAGGCAAA,0.166
11,ACTCGCGG,0.0017
12,AGGGAGGC,-0.281
13,CGATGATC,-0.0736
14,ATGTCACG,0.0609
15,AAGACGAG,-0.105
16,GTGGCCAC,-0.0436
17,AGCGTTGA,-0.161
18,GACGGTGC,-0.146
19,AATCCCTG,-0.102
20,ATGAGGTG,0.035
21,TGGACACA,0.0862
22,GCAGGGTA,-0.00172
23,AGTCGATG,0.0111
24,AAGCCAGT,-0.106
25,ACGATAAC,0.207

row,Sequence,PBM E-score
1,ACTACACT,-0.0412
2,ATCGCTCG,-0.0755
3,TTTATAAA,0.277
4,ACTGGAAC,-0.101
5,TACCGAGA,0.0165
6,CAGACCAC,0.0738
7,GACTCAGA,0.0377
8,AATTTGAC,0.194
9,AAGCCCCG,-0.143
10,GAGTACGC,-0.261
11,GCAGAGAC,-0.322
12,TTGAGCAA,-0.0128
13,GAGGTTGA,-0.102
14,CGGTTAAA,0.196
15,ACTGCATC,-0.0342
16,ATTATAAA,0.231
17,CCTAGCGA,-0.263
18,TAAACCTA,0.171
19,TCCGTAGA,-0.064
20,CAGGCTTA,-0.108
21,AGTGGAAC,-0.0961
22,CTGGGTAC,-0.178
